These are yes or no findings as the source states them, for the method shown. In cells and extracts the contact can be indirect. Some entries that bind do so weakly or less than the wild type.
Experiments:
[1] = molecular target: rat liver VDAC (voltage-dependent anion channel, mitochondrial porin) purified from rat liver mitochondria (rat) (UniProt Q9Z2L0); assay: GST pull-down of purified proteins on GSH-sepharose, Western blot
[2] = molecular target: rat liver VDAC (voltage-dependent anion channel, mitochondrial porin) purified from rat liver mitochondria (rat) (UniProt Q9Z2L0); assay: GST pull-down of purified proteins on GSH-sepharose, Western blot (recap)

Sequences of proteins named here, by UniProt entry; tags and fusion partners are left off. A change or cut given only in a name is not applied to a line headed by its entry. Residues count along the entry.
UniProt Q9Z2L0, residues 2-283: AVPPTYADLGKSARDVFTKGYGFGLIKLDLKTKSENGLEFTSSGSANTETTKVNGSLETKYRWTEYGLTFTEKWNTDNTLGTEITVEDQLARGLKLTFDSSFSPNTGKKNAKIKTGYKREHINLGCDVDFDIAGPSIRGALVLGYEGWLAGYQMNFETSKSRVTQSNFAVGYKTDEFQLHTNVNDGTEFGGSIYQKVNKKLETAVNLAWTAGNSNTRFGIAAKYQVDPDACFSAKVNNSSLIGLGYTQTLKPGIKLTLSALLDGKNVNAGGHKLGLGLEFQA
UniProt Q07817: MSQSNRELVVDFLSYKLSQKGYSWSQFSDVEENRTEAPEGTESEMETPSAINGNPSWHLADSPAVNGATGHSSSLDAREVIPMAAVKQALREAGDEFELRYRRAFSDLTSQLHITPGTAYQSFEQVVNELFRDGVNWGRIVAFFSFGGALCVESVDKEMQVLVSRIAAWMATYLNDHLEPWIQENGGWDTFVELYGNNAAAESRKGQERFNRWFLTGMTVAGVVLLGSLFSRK

GST-Bcl-xL fusion protein (from UniProt Q07817 1-233)
binding [1]: binds
binding [2]: binds

From patent US7229773
